The text below walks through data of publication PMC12058022, “Promiscuous structural cross-compatibilities between major shell components of Klebsiella pneumoniae bacterial microcompartments” (PLOS One, 2025).

Assay [1] deals with PduA, His6-tagged (Klebsiella pneumoniae (strain 342)). The assay can be described thus: SEC; SEC-HPLC of fractions purified on cobalt resin from strains co-expressing a FLAG-tagged and a His6-tagged BMC-H; profiles compared with those of the individual proteins; 20 mM Tris-HCl, 300 mM NaCl, pH 7; both purified. A general note: In gel filtration, larger molecules generally elute earlier.

Assay [2] has the same target. Nature of the assay: pull-down; co-purification of a FLAG-tagged BMC-H with a co-expressed His6-tagged BMC-H on cobalt-chelate columns from soluble fractions of E. coli BL21(DE3), with 1 mM beta-mercaptoethanol added before loading; washes 20 mM NaPi/300 mM NaCl/10 mM imidazole pH 8.0; SDS-PAGE and anti-FLAG western blot.

No constants are given. Whether binding was seen depends on the method and setting. A result given as binding can be weak or reduced; the word gives no strength. Tags and fused reporters may be left off the sequences shown. For some assays here: Binding seen in cells or lysates may run through a third protein.

B1: PduJ, His6-tagged (natural protein, Klebsiella pneumoniae (strain 342), UniProt A6TDD7 1-91, looked up)
chain: MNNALGLVETKGLVGAIEAADAMVKSANVQLIGYEKIGSGLITVMVRGDVGAVKAAVDAGSAAASVVGEVKSSHVIPRPHSDVEAILPKSV
notes: PduJ, canonical BMC-H shell protein of the PDU microcompartment; theoretical monomer MW 9.2 kDa; not shown: His6, C-terminal, kept
For the molecule B1, the binding result in assay [1] and in assay [2] was “binds” in each case.
